Data: PubChem BioAssay AID445 (National Center for Advancing Translational Sciences (NCATS), 2006)
This is one part of the list. The main result of the screen is listed elsewhere. These columns were measured beside it and carry no call. Compounds called inactive in the main read-out are mostly missing here. The note in brackets gives the kind of curve behind each potency; many fits are weak.

Test: IkB Signaling
Details: ABC-DLBCL IkBa-CBG/CBR dual luciferase ratio (green luciferase fused to IkBa over red control in OCI-Ly3 lymphoma cells), 4 h
How it was run: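 In this assay, an IκBα–CBG68 fusion accumulates when IKK-driven degradation is blocked; native CBR normalizes for cell number. OCI-Ly3 cells were treated 4 h with compound and doxycycline, then green and red light read after Chroma-Glo addition.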

[1] = measured here: control luc red channel unless noted

SMILES: Cc1ccc(C(=O)NCC(c2ccco2)S(=O)(=O)c2cccs2)cc1C (configuration not stated)
- AC50 [1]: 6.31 µM [falling, partial curve]

SMILES: CCCCN(Cc1cc2ccccc2[nH]c1=O)C(=O)c1cccc(Cl)c1
- AC50 [1]: 39.8 µM [falling, single point]

SMILES: O=C(Oc1ccc(F)cc1)c1nc(SCc2ccc(F)cc2)ncc1Cl
- AC50 [1]: 25.1 µM [falling, single point]

SMILES: COc1ccc(NC(=O)CCS(=O)(=O)c2ccc3c(c2)oc(=O)n3C)cc1OC
- AC50 [1]: 1.26 µM [rising, full curve]

SMILES: CN(C)c1ccc2c(c1)OC(N)=C(C#N)C2c1cccc(F)c1 (configuration not stated)
- AC50 [1]: 39.8 µM [falling, single point]

SMILES: COc1ccc(OC)c(NC(=O)c2cnc(N3CCCCC3)c3ccccc23)c1
- AC50 [1]: 0.501 µM [rising, full curve]

SMILES: Cc1cccc(C(c2sc3nc(-c4ccco4)nn3c2O)N2CCN(c3ccccc3F)CC2)c1 (configuration not stated)
- AC50 [1]: 15.8 µM [falling, single point]

SMILES: O=C1C2C3C=CC(C3)C2C(=O)N1Cc1ccccc1 (configuration not stated)
- AC50 [1]: 7.94 µM [falling, partial curve]

SMILES: Cc1ccc(C)c(CN2C(=O)c3ccccc3S(=O)c3ccc(C(=O)N(C)Cc4ccccc4)cc32)c1 (configuration not stated)
- AC50 [1]: 0.794 µM [falling, single point]

SMILES: Cc1ccc(-n2ncc(C(=O)N3CCC(c4ccccc4)C3)c2C2CCN(C(=O)OC(C)(C)C)CC2)cc1 (configuration not stated)
- AC50 [1]: 12.6 µM [falling, partial curve]

SMILES: CCCCOc1ccc(CNC(=O)c2ccc(NC(=O)N3CCSc4ncccc43)cc2)cc1
- AC50 [1]: 10 µM [falling, partial curve]

SMILES: O=C(Nc1nc(-c2ccc(Br)cc2)ns1)c1ccccc1F
- AC50 [1]: 0.126 µM [rising, full curve]

SMILES: Cc1cccc(N2CCN(C(=O)C3CCN(S(=O)(=O)c4ccc5c(c4)oc(=O)n5C)CC3)CC2)c1C
- AC50 [1]: 25.1 µM [falling, partial curve]

SMILES: COC(=O)CCN(C(=O)c1c(C)oc2ncnc(N3CCOCC3)c12)c1ccccc1
- AC50 [1]: 1.26 µM [rising, full curve, poor fit]

SMILES: CCC(C)[C@@H](NC(=O)OC(C)(C)C)c1nnc(S(=O)(=O)Cc2cccc(C)c2)o1 (some centres not stated)
- AC50 (measured here: IkB-luc green channel): 6.31 µM [rising, single point]
- AC50 (measured here: control luc red channel): 12.6 µM [falling, partial curve]

SMILES: Cc1coc2cc3oc(=O)c(CC(=O)NCc4ccccc4)c(C)c3cc12
- AC50 [1]: 0.2 µM [falling, partial curve]

SMILES: CC(C)(C)c1ccc(S(=O)(=O)Nc2ccc(O)c(Sc3nc4ccccc4s3)c2)cc1
- AC50 [1]: 31.6 µM [falling, single point]

SMILES: CC(=O)N1CCCc2cc(S(=O)(=O)N3CCCC(C(=O)Nc4ccc(C)c(C)c4)C3)ccc21 (configuration not stated)
- AC50 [1]: 0.0398 µM [falling, single point]

SMILES: COc1cccc(-c2cnc(NCc3ccccc3Cl)n2C)c1
- AC50 [1]: 12.6 µM [falling, partial curve]

SMILES: Cc1ccc(C(=O)Nc2ccc3oc(-c4cccnc4)nc3c2)c(Cl)c1
- AC50 [1]: 6.31 µM [falling, full curve]

SMILES: Cc1ccc(C)c(N2CCN(C(=O)c3cc4c(=O)n(Cc5cccs5)ccc4nc3C)CC2)c1
- AC50 [1]: 31.6 µM [falling, single point]

SMILES: Cc1ccc(NC(=O)/C(C#N)=C\c2ccc(Cl)cc2Cl)cc1C
- AC50 [1]: 25.1 µM [rising, partial curve]

SMILES: CCOC(=O)CN(C(=O)CSc1nnc2c(n1)[nH]c1ccc(OC)cc12)c1ccc(F)cc1
- AC50 [1]: 25.1 µM [falling, partial curve]

SMILES: CCOc1ccccc1NC(=O)N1CCN(S(=O)(=O)c2ccc3c(ccn3C)c2)CC1
- AC50 [1]: 15.8 µM [falling, single point]

SMILES: CCN(c1ccc(C)cc1)S(=O)(=O)c1nnc(NC(=O)c2cccs2)s1
- AC50 [1]: 1.26 µM [falling, partial curve]

SMILES: Cc1ccc(-c2ccc(CCC(=O)O)n2-c2ccc(C(C)C)cc2)cc1
- AC50 [1]: 15.8 µM [falling, partial curve]

SMILES: COc1ccccc1CNC(=O)Cn1ncc2c(C)n(Cc3ccccc3Cl)c(C)c2c1=O
- AC50 [1]: 12.6 µM [falling, partial curve]

SMILES: COC(=O)c1ccc(OCC(=O)c2ccc(O)cc2O)cc1
- AC50 [1]: 25.1 µM [falling, partial curve]

SMILES: Cc1nnc(SCc2ccccc2)n1N
- AC50 [1]: 50.1 nM [rising, full curve, poor fit] [measured here: IkB-luc green channel]

SMILES: COc1ccccc1NC(=O)Cn1cnc2c(cnn2-c2ccc(C)c(C)c2)c1=O
- AC50 [1]: 20 µM [falling, partial curve]

SMILES: CCN(c1cc(C)cc(C)c1)S(=O)(=O)c1nnc(NC(=O)c2cccc(F)c2)s1
- AC50 [1]: 12.6 µM [falling, partial curve]
